Experimental findings from paper PMC11220018 are described below.

Protein sequences, listed by entry. Tags and fused reporters are not part of them. Lines headed by an entry give the natural chain unless they say otherwise; changes in a name come on top.
UniProt P05556: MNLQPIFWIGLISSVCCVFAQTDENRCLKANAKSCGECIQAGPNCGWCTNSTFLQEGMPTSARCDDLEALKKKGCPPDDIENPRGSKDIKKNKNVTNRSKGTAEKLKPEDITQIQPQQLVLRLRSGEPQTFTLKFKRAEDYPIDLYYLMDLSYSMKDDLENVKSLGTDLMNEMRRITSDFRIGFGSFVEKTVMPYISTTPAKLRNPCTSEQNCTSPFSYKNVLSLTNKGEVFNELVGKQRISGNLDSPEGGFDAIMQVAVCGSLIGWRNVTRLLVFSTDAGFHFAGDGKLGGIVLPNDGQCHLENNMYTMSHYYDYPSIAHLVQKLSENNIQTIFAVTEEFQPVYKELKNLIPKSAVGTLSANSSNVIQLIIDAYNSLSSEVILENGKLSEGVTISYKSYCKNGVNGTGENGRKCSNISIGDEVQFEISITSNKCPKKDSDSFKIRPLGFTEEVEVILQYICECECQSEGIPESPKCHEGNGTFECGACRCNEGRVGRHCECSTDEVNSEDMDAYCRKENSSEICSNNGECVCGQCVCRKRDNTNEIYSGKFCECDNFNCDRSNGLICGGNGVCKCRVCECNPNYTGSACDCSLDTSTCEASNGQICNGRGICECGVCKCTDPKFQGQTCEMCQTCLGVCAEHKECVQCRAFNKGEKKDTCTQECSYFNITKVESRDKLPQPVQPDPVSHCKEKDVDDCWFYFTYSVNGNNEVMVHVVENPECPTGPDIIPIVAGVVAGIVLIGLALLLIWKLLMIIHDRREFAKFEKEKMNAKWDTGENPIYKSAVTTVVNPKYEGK

In this assay the target is NRP1 (UniProt O14786). The assay is described as follows: affinity purification with mass spectrometry; Sema3C and NRP1 overexpressed in Huh7 cells; co-immunoprecipitation (anti-Flag or anti-HA, rProtein A/G magnetic beads), gel bands digested with trypsin, Q Exactive HF-X.

No constants are given. Whether binding was seen depends on the method and setting. Binding seen in cells or lysates may run through a third protein. These calls come from enrichment with a bait or labelling near it, and not all partners need be listed.

Consider “ITGB1 (from UniProt P05556 21-798) (receptor)”, for which the binding result is “binds”.
